# Reference: US20110166063A1 (priority 2008, published 2011)
# Chains of the proteins cited; added tags and fusions are not shown. Lines headed by an entry give the natural chain unless they say otherwise; changes in a name come on top.
# UniProt P32194: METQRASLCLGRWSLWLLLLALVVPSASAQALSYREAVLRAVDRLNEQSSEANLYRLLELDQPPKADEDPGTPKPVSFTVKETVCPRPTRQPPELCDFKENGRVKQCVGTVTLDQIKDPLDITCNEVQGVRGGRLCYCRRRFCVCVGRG
# Assay: peptide synthesis
# Details: conjugation step, analytical RP-HPLC (Waters Symmetry C18, 280 nm); SDS-PAGE
row,Substance,final HPLC purity [%]
1,"[mono]-[4,7-CG-PEG2-FMOC-NHS-40K]-[protegrin-1] (RGGRLCYCRRRFCVCVGR; Protegrin-1 releasable CG-PEG2-FMOC 40K PEG; UniProt P32194 131-148, looked up)",99.8
2,"ALD40K-PG-1 (RGGRLCYCRRRFCVCVGR; Protegrin-1 mPEG2-butyraldehyde 40K; UniProt P32194 131-148, looked up)",96.2
